According to patent US20260103528A1:
These are yes or no findings as the source states them, for the method shown. A result given as binding can be weak or reduced; the word gives no strength.

B1: candidate nanobody 1-G7 (VHH, not shown: large carriers)
VHH: EVQLVESGGGLAQPGGSLRLSCAASGIISSAYIMGWYRQAPGKQRELVATINGGRLNYADSVKGRFTISSDNAKNTVYLQMNSLKPEDTAVYYCYAQRTNAYWGQGTQVTVSS
B2: candidate nanobody 1-F7 (VHH, not shown: large carriers)
VHH: QLQLVESGGGLVQPGGSLRLSCAASGSIFSVHDMAWYRQAPGKQRELVAAITSGGKANYPDSVKGRFTISRDNAKNTVYLEMNRLKPEDTAVYYCNKRWPVKYAWGQGTQVTVSS
B3: candidate nanobody 1-C12 (VHH, not shown: large carriers)
VHH: EVQVVESGGGLVQAGGSLRVSCAASERTLSNYVMGWFRQAPGKSREFVAGIRWADGASYYADSVKGRFTISRDNAGNTVYLQMNSLKPEDTAVYYCTGGGIRTWSRKDPTSYRYWGQGTQVTVSS
B4: candidate nanobody 1-D9 (VHH, not shown: large carriers)
VHH: QVQLVESGGGSVQAGGSLRLSCAASERTFSNYAMGWFRQAPGKEREFVAAIAWSGEITNYADSVKGRFTVSRDIDKNTVYLQMNSLKPEDTAVYYCAGVRYRNYRTTRPTDFGSWGQGTQVTVSS
B5: candidate nanobody 1-E8 (VHH, not shown: large carriers)
VHH: DVQLQESGGGLVQAGGSLRLSCAASGRAFSNYAMGWFRQAPGKEREFVAEASWSGRSTRYADSVKGRFTISRDNAKNTGYLQMSNLKPEDTAVYYCATSRTVVIGPGAKYDYWGQGTQVTVSS

molecular target: Flag-tagged GPRC5D membrane protein (human); assay: ELISA, phage-displayed nanobody on purified GPRC5D protein (FIG. 7)

binding | Binder
binds | B1
binds | B2
binds | B3
binds | B4
binds | B5
